By UniProt entry, the sequences of proteins in these tests, tags left out. Where a name states a change or a piece, a line headed by the entry shows the natural chain unless it says otherwise.
UniProt Q15437: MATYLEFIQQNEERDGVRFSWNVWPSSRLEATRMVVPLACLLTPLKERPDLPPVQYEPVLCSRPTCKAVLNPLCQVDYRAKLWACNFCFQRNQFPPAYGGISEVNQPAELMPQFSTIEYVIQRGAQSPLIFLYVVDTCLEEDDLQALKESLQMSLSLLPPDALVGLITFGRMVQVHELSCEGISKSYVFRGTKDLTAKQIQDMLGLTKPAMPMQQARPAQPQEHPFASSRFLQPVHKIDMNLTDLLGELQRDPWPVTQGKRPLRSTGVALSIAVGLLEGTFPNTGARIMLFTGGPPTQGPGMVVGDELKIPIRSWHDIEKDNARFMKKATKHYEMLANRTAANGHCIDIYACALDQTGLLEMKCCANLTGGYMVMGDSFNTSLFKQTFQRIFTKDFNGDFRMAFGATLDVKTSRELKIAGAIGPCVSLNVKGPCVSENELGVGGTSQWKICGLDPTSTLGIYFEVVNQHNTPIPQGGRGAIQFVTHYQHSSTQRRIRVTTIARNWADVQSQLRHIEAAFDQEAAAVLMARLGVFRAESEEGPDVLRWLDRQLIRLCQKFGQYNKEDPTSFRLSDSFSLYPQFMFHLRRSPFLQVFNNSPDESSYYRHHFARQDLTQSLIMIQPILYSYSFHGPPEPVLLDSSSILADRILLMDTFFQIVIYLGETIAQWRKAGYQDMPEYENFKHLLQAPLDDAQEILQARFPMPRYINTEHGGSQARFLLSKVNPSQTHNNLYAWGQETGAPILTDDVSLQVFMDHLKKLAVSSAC
UniProt Q9Y383: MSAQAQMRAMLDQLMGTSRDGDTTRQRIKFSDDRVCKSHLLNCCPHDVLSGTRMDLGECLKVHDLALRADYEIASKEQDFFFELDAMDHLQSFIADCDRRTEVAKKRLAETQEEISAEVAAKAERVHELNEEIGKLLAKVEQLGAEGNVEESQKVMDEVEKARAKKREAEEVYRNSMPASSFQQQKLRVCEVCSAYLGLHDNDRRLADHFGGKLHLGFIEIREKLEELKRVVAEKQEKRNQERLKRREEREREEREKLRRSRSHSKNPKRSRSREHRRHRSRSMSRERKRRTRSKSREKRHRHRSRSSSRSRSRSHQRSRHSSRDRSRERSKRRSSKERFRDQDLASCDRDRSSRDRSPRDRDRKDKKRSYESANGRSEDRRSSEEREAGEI
UniProt Q6P2H3: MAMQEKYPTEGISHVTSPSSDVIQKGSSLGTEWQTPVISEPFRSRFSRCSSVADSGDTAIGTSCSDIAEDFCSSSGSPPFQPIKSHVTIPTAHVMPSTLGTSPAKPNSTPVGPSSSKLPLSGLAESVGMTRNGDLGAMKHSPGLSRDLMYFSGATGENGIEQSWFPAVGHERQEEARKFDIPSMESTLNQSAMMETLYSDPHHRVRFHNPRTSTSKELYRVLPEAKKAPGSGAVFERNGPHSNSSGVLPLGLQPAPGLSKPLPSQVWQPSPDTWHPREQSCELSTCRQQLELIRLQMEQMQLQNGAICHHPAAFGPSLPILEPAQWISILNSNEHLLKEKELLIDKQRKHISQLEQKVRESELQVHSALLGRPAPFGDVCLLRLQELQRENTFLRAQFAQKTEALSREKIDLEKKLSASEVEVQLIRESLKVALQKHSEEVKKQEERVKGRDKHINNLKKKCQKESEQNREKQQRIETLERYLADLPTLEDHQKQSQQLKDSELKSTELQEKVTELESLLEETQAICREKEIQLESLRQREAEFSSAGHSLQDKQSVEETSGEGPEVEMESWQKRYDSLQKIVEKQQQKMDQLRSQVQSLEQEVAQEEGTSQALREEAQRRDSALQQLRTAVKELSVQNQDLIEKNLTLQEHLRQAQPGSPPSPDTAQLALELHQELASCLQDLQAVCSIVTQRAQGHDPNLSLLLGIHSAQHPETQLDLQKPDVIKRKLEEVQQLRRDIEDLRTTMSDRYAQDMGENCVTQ
UniProt Q8N5M1: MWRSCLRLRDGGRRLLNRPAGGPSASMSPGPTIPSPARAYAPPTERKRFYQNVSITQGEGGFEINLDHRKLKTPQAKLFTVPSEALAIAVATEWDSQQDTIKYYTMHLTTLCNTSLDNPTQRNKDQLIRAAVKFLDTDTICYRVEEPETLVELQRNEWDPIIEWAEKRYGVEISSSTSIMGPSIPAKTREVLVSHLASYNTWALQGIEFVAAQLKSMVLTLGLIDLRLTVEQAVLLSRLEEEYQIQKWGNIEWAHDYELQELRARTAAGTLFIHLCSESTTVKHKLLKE
UniProt P20645: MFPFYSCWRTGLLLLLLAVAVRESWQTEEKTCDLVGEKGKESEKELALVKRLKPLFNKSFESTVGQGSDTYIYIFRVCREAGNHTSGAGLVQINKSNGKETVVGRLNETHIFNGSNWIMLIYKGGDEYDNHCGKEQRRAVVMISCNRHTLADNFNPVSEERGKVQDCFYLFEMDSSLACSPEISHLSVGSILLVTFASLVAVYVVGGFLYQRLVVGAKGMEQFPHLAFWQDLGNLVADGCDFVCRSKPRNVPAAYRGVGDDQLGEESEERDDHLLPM
UniProt Q96IZ6: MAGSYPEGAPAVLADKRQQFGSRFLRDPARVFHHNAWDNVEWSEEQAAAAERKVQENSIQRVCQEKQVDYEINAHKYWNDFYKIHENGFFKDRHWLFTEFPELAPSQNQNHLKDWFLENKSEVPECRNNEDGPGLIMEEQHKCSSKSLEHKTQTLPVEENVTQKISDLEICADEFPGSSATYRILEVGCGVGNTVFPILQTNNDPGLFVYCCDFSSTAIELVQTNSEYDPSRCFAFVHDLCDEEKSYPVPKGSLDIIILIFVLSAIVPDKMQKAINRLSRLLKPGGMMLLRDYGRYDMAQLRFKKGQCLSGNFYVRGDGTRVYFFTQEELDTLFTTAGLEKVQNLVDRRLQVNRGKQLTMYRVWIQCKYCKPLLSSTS
UniProt Q53EU6: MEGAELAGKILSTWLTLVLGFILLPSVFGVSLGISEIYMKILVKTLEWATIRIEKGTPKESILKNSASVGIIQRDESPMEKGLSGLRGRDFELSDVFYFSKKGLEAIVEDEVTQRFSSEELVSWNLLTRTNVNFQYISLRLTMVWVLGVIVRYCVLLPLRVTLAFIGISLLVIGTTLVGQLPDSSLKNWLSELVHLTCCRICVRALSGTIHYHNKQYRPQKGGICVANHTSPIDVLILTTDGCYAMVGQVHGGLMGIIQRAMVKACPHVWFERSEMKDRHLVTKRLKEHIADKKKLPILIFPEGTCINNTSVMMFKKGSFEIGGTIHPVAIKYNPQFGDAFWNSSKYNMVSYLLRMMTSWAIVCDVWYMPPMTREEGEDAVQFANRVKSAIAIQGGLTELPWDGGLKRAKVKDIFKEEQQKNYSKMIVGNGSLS
UniProt Q8WXG6, whole entry, looked up: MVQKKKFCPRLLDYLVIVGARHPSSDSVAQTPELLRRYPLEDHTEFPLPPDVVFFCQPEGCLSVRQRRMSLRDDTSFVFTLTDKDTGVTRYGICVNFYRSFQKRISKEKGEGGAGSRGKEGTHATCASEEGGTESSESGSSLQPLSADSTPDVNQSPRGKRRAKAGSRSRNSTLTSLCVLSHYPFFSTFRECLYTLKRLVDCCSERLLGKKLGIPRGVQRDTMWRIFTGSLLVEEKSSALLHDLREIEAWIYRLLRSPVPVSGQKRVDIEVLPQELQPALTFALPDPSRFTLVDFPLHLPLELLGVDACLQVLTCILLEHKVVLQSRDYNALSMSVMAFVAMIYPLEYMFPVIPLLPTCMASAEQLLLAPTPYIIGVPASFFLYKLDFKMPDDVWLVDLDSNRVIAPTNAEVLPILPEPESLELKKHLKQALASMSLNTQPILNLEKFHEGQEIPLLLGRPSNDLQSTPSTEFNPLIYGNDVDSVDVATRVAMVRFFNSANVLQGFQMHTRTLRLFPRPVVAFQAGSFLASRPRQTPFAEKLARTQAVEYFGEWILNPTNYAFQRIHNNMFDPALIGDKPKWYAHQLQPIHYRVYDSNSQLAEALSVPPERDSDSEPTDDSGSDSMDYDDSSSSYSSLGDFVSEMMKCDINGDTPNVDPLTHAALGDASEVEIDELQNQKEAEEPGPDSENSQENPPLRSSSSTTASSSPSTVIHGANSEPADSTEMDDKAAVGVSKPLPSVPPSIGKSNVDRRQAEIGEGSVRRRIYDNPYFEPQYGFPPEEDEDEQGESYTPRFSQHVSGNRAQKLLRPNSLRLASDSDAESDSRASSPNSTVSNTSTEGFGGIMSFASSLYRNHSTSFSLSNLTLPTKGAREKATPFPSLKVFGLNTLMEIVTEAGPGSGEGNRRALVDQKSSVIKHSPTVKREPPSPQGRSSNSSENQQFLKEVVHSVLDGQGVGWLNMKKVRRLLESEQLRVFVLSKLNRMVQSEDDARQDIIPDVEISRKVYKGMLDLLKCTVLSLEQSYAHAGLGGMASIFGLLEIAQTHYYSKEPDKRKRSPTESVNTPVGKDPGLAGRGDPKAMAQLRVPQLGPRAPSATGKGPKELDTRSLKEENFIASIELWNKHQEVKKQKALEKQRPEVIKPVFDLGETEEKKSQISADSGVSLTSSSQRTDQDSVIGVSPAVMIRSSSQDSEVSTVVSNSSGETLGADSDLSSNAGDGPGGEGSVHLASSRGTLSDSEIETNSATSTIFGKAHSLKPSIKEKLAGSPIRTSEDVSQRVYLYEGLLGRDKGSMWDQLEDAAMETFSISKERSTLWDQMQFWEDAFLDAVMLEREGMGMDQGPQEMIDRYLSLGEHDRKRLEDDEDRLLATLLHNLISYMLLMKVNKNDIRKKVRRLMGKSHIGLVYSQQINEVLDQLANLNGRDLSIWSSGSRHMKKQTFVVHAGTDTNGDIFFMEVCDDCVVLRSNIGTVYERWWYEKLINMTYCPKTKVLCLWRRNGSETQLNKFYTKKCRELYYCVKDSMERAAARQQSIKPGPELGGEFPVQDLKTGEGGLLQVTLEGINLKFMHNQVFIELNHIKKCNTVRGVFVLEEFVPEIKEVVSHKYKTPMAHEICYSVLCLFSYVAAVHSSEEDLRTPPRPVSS
UniProt P04632: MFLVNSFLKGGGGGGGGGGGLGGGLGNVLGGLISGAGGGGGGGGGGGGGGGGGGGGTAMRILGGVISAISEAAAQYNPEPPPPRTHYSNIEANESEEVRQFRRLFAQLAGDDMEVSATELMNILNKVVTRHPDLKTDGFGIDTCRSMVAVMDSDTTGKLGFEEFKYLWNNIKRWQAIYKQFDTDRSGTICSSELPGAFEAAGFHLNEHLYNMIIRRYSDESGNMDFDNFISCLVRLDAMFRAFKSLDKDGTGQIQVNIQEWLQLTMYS
UniProt Q9BWS9: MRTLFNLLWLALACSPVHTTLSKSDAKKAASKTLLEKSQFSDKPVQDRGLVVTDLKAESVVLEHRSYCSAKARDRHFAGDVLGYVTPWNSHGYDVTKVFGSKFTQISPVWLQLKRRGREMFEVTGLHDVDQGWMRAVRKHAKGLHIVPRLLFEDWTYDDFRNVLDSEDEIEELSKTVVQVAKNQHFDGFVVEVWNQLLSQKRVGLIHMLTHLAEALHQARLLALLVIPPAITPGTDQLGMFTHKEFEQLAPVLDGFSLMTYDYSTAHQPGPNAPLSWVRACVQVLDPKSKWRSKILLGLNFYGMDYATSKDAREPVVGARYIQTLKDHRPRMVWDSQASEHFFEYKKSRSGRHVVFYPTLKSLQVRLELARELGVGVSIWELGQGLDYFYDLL
UniProt Q15560: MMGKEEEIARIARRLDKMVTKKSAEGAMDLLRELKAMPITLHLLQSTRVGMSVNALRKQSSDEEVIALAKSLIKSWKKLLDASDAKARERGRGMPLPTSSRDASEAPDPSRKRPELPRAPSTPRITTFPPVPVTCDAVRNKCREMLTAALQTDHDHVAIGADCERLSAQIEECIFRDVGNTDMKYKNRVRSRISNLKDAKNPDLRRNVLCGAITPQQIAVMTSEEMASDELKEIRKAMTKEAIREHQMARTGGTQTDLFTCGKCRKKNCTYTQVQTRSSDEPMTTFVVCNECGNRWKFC
UniProt Q9Y5B8, whole entry: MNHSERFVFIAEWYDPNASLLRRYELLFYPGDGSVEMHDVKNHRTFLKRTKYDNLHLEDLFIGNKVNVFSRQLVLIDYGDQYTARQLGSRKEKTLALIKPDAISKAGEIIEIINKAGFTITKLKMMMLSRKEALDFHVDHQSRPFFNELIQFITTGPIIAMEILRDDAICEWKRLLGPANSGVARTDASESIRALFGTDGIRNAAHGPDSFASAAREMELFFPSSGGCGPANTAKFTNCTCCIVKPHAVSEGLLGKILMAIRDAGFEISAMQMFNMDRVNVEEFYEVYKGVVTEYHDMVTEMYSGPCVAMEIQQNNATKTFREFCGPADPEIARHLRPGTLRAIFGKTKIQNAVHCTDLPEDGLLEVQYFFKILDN
UniProt Q6ZUV0: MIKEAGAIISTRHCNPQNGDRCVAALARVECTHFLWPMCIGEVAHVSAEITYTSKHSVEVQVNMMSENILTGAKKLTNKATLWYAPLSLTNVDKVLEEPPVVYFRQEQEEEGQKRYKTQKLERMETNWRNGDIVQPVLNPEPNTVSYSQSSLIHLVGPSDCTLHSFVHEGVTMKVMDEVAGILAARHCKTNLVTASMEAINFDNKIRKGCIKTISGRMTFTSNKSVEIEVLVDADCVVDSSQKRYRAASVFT

According to the supplement of paper PMC10060354, “Discovery of a small molecule ligand of FRS2 that inhibits invasion and tumor growth” (Cellular Oncology, 2022):

Compound: [O-][N+](C(C1=C(C(O)=C2)NC(C(C=C3)=CC=C3Cl)C4C1C=CC4)=C2Cl)=O
Assay: melting temperature shift (compound 7 minus DMSO); higher = compound stabilises the protein
Details: 10 µM
Procedure: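 Thermal proteome profiling (TMT mass spectrometry) in intact DAOY medulloblastoma cells or DAOY lysates treated with 10 µM compound 7 or DMSO, heated at 10 temperatures from 40.5 to 73.8 °C for 3 min. Melting curves were fitted with the Bioconductor TPP package, and the melting point difference between compound and vehicle is reported per protein (single curve per condition).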

[1] = system: DAOY cell lysate, treatment time: 20 min, 4 °C
[2] = system: intact DAOY cells, treatment time: 90 min, 37 °C

| Target | melting temperature shift [1] | melting temperature shift [2] |
| --- | --- | --- |
| SMN1 (UniProt Q16637) | 0.261 °C |  |
| MRPL54 (UniProt Q6P161) | 0.539 °C |  |
| UniProt Q9C0A0 |  | 0.592 °C |
| NUP88 (UniProt Q99567) | -0.265 °C | -0.0701 °C |
| TXNL1 (UniProt O43396) | -0.249 °C | 0.0159 °C |
| PTDSS2 (UniProt Q9BVG9) | -0.416 °C | 0.961 °C |
| SEC23B (UniProt Q15437) | -0.229 °C | -0.531 °C |
| MTCH2 (UniProt Q9Y6C9) | 2.15 °C | 0.0531 °C |
| UniProt Q9Y383 | -0.643 °C | -0.321 °C |
| CEP85 (UniProt Q6P2H3) | 1.11 °C | 0.29 °C |
| HMGA1 (UniProt P17096) | 4.05 °C |  |
| UniProt P0C7V7 |  | 0.0203 °C |
| ACSL4 (UniProt O60488) | -0.268 °C | -0.616 °C |
| RAB10 (UniProt P61026) | 0.584 °C | -0.921 °C |
| HARS (UniProt P12081) | -0.592 °C | -1.53 °C |
| MRPL55 (UniProt Q7Z7F7) | -3.39 °C |  |
| GPATCH8 (UniProt Q9UKJ3) | 1.45 °C | 2.42 °C |
| ATPAF2 (UniProt Q8N5M1) | -0.947 °C | -0.319 °C |
| M6PR (UniProt P20645) | 3.01 °C |  |

| Target | melting temperature shift [1] | melting temperature shift [2] |
| --- | --- | --- |
| THBS1 (UniProt P07996) | 0.466 °C | -0.178 °C |
| METTL2A (UniProt Q96IZ6) |  | 0.777 °C |
| UFL1 (UniProt O94874) | 0.585 °C | -0.515 °C |
| ATP2A2 (UniProt P16615) | 0.768 °C | -0.796 °C |
| SQRDL (UniProt Q9Y6N5) | 5.05 °C | 1.09 °C |
| RPL8 (UniProt P62917) |  | -0.428 °C |
| NAA15 (UniProt Q9BXJ9) | -0.215 °C | -0.5 °C |
| UniProt O43639 | -1.11 °C | -0.181 °C |
| EPRS (UniProt P07814) | -1 °C | -0.497 °C |
| RASA3 (UniProt Q14644) | 2.58 °C | -1.72 °C |
| UniProt Q53EU6 | 0.173 °C | 2.64 °C |
| ANXA6 (UniProt P08133) | 0.0239 °C | 0.156 °C |
| DNAJC8 (UniProt O75937) | -0.637 °C | -0.375 °C |
| MADD (UniProt Q8WXG6) | -0.669 °C | -1.31 °C |
| SPC24 (UniProt Q8NBT2) | -0.45 °C | 0.567 °C |
| CAPNS1 (UniProt P04632) | -1.31 °C | 0.756 °C |
| UniProt Q96L21 |  | -0.566 °C |
| SEC24B (UniProt O95487) | 0.282 °C | 3.1 °C |
| FN3KRP (UniProt Q9HA64) | -0.978 °C | -3.71 °C |

| Target | melting temperature shift [1] | melting temperature shift [2] |
| --- | --- | --- |
| ACTR5 (UniProt Q9H9F9) | 0.239 °C |  |
| XPO7 (UniProt Q9UIA9) | -0.849 °C | 0.187 °C |
| UniProt Q6P1R3 | 0.455 °C | 0.34 °C |
| NAP1L1 (UniProt P55209) | -0.0761 °C | 0.398 °C |
| SAP30BP (UniProt Q9UHR5) |  | -1.02 °C |
| RPL23 (UniProt P62829) | 0.109 °C | -0.645 °C |
| CHID1 (UniProt Q9BWS9) | -0.517 °C | 0.548 °C |
| UniProt Q96PP9 |  | 0.088 °C |
| UniProt Q15560 |  | 0.363 °C |
| SUMO1 (UniProt P63165) | 2.33 °C | 3.43 °C |
| MRPS12 (UniProt O15235) | 0.298 °C | -1.32 °C |
| NUBPL (UniProt Q8TB37) |  | -2.27 °C |
| FKBP14 (UniProt Q9NWM8) | 2.11 °C | 0.867 °C |
| NME7 (UniProt Q9Y5B8) | -0.548 °C | -0.512 °C |
| UniProt Q6ZUV0 |  | -0.653 °C |
| UniProt P11215 |  | -1.48 °C |
| RAB1B (UniProt Q9H0U4) | 1.2 °C | -0.766 °C |
| UniProt Q8TE12 |  | 2.45 °C |
| ELOVL1 (UniProt Q9BW60) | 3.35 °C | -2.99 °C |

A different layout for some results above:
Target	melting temperature shift [1]	melting temperature shift [2]
NME7 (UniProt Q9Y5B8)	-0.548 °C	-0.512 °C
UniProt Q6ZUV0		-0.653 °C
UniProt P11215		-1.48 °C

Many values rest on one well or one pass, so single values are uncertain.
